Here are results for 43 molecules from PubChem BioAssay AID662 (National Center for Advancing Translational Sciences (NCATS), 2007).

What is called AC50 is the concentration at which the activity in the assay is half-maximal.

SMILES strings stand for the structures. The list shows a part of the results. Further columns of the screen follow, without active or inactive calls. The list favours compounds with an active or inconclusive main result. Words in brackets tell the shape of the fitted curve; partial curves, single points and poor fits give uncertain potencies.

The assay can be described thus: Cell signaling CRE-BLA (Fsk stim). The following applies: CHO CRE-bla reporter (cAMP response element driving beta-lactamase), forskolin EC10, beta-lactamase ratio; measured here: 460 nm blue channel. In short, it runs like this: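 CRE-bla CHO cells stimulated with EC10 NKH 477 (water-soluble forskolin) and compound titrations, 3 h at 37C; beta-lactamase read with CCF4 after 2 h at room temperature. Activity from 460/530 nm emission ratio, AC50 values for positive or negative modulation.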
As to `CC(Oc1ccccc1)C(=O)N1CCCc2ccccc21` (stereo not drawn), the AC50 was 1 µM [falling, partial curve, poor fit].

For the molecule `O=C1CC(c2ccc(F)cc2)Cc2nc(N3CCN(c4ccccc4)CC3)ncc21` (stereo not drawn), the AC50 was 10 µM [falling, single point]. In the case of `COc1cc(OC)cc(C(C(=O)NCc2ccccc2)N(Cc2ccco2)C(=O)c2ccno2)c1` (stereo not drawn) it was 3.98 µM [falling, single point].

For the molecule `O=C(Cn1cnc2c(nnn2Cc2ccc(Cl)cc2)c1=O)N1CCCc2ccccc21`, the AC50 is 2.51 µM [rising, single point]. In the case of `CCOc1ccc2nc(C)cc(C(=O)O)c2c1` it was 0.2 µM [falling, full curve]. In the case of `COc1ccc(OC)c(C2C(C(=O)c3cccs3)=C(O)C(=O)N2CCN(C)C)c1` (stereo not drawn) it was 1.26 µM [falling, partial curve]. The figure for `CNC(=O)c1[nH]cnc1C(=O)Nc1cccc(OC)c1` is 12.6 µM [rising, partial curve]; for `c1ccc(-c2ccc(-c3nc(-c4ccccn4)no3)cc2)cc1` it is 25.1 µM [falling, single point]. Take `CN(C)c1ncc2nc(-c3cccs3)c(=O)n(Cc3cccs3)c2n1`: the AC50 was 1 µM [rising, full curve]. Consider `Cc1ccc(C)n1-n1c(C)nc2scc(-c3cccs3)c2c1=O`, for which the AC50 is 12.6 µM [rising, partial curve].

Take `Cc1csc(NC(=O)C2CCCN(S(=O)(=O)c3ccc(Br)s3)C2)n1` (stereo not drawn): the AC50 was 31.6 µM [falling, single point].

With `CCC(=O)Nc1ccc(NC(=O)c2ccccn2)cn1`, the AC50 is 0.0126 µM [falling, full curve, poor fit]. Consider `CCOc1c(N2CCCCC2)c(=O)c1=O`, for which the AC50 was 25.1 µM [rising, single point]. The figure for `CN(C)S(=O)(=O)c1cccc(C(=O)OCC(=O)Nc2sccc2C(N)=O)c1` is 2.51 µM [rising, single point]; for `N=C(N)SCC(=O)O` it is 0.0631 µM [rising, full curve, poor fit]; for `C=CCOc1c(CNc2nccs2)cccc1OCC` it is 2.51 µM [falling, partial curve]. In the case of `COc1cccc(C2=NO[C@@H]3C(=O)N(Cc4ccccc4)C(=O)[C@H]23)c1OC` it was 0.01 µM [falling, full curve, poor fit]; in that of `COc1ccc2[nH]cc(CCNc3nc(-c4ccccc4OC)nc4ccccc34)c2c1`, 10 µM [rising, partial curve]. The figure for `Cc1cccc(NS(=O)(=O)c2ccc(C)c(C(=O)OCC(=O)Nc3cc(C)on3)c2)c1` is 20 µM [falling, partial curve]. With `COC(=O)c1cccc(NC(=O)c2nn(C)c(=O)c3ccccc23)c1`, the AC50 is 10 µM [rising, partial curve]. Regarding `N#Cc1nc(-c2ccco2)oc1NCc1ccc(F)cc1`, the AC50 is 10 µM [rising, single point]. The figure for `CCN(c1ccccc1)S(=O)(=O)c1cccc(C(=O)O)c1` is 3.98 µM [falling, single point]; for `CCN(CC)C(=O)CSc1nnc(-c2ccccn2)n1-c1ccc(C)c(C)c1` it is 25.1 µM [rising, single point]; for `CN1CCN(c2ncc3nc(-c4cccc(C#N)c4)c(=O)n(C)c3n2)CC1` it is 10 µM [rising, partial curve]. Regarding `Cc1ccc(Cn2ncc3c(N4CCN(c5ccccc5C)CC4)ncnc32)cc1`, the AC50 is 15.8 µM [falling, partial curve]. In the case of `COc1ccc(C(=O)N(CN2CCCC2=O)c2ccc(C)cc2)cc1` it was 2 µM [falling, partial curve]. In the case of `COc1ccc2nc(NCCCNC(=O)c3cc(OC)c(OC)c(OC)c3)c(C#N)cc2c1` it was 12.6 µM [rising, partial curve]; in that of `Cc1nc(N2CCN(Cc3nc4ccccc4[nH]3)CC2)c2oc3ccccc3c2n1`, 5.01 µM [rising, partial curve]; in that of `CC(C)(C)Oc1ncc(Br)c(OC(C)(C)C)n1`, 5.01 µM [falling, single point]. In the case of `O=C(c1ccco1)n1nc(NCc2ccccc2)nc1NCc1ccccc1` it was 12.6 µM [rising, single point]; in that of `COc1ccc(-c2[nH]ncc2Oc2ccccc2OC)c(O)c1`, 20 µM [falling, single point]. Regarding `COc1ccccc1Nc1nc(N)nc(CSc2nc(C)cc(C)n2)n1`, the AC50 was 10 µM [rising, partial curve]. For the molecule `O=C(CCCn1c(=O)c2ccccc2n(CC(=O)NCc2ccco2)c1=O)NCc1ccco1`, the AC50 was 0.2 µM [falling, full curve]. The figure for `CCNc1ncc2nc(-c3cc(F)cc(F)c3)c(=O)n(CCC#N)c2n1` is 5.01 µM [rising, partial curve]; for `COc1ccc(N=C2SC(CC(=O)Nc3ccccc3)C(=O)N2CC2CCCO2)cc1` (stereo not drawn) it is 10 µM [falling, partial curve]; for `O=C(c1ccccc1)c1cccn1CC(=O)N1CCN(C2CCCCC2)CC1` it is 0.0316 µM [falling, full curve]. In the case of `Cn1c(=O)cc(N2CCc3ccccc32)[nH]c1=O`, the AC50 is 10 µM [rising, single point]. The figure for `Cc1cccc2cc(CN(Cc3ccc(F)cc3)C(=O)N(C)C)c3nnnn3c12` is 1 µM [rising, full curve]; for `CC1(C)NC(=O)N(CC(O)CN2C(=O)NC(C)(C)C2=O)C1=O` it is 25.1 µM [falling, single point]; for `Cc1cccc(-n2nnc(C(=O)NCc3ccco3)c2N)c1` it is 0.01 µM [falling, full curve, poor fit]. The figure for `CCOC(=O)c1sc(NC(NC(=O)c2ccco2)(C(=O)OC)C(F)(F)F)nc1C` (stereo not drawn) is 12.6 µM [rising, partial curve]; for `COc1ccc(N2CCN(c3ccc(NC(=O)c4ccc5c(c4)OCO5)cc3C#N)CC2)cc1` it is 0.00398 µM [falling, full curve, poor fit]. `COc1ccc(OC)c2[nH]c(=O)c(CCNS(=O)(=O)c3ccc(C)cc3)cc12`: the AC50 was 2 µM [rising, single point].
